# Test results from PubChem BioAssay AID504444 (National Center for Advancing Translational Sciences (NCATS), 2011).
# Values joined by “and” are separate entries in the source; they are usually repeats but may differ in a detail not shown here. Identical values can stand only once. About 7,500 (2.1%) of roughly 360,000 compounds were called active. Inconclusive means that the source gave no clear call. Such entries were picked first, then a sample of the others. The call rests on the fitted dose curve; in most records, active means well fitted inhibition curve with a large enough effect; inconclusive means small, poorly fitted or top-dose-only effect, or effect the other way; inactive means flat fitted curve, though single readings scatter. Where the call is inconclusive, the potency comes from a doubtful curve fit.
# Assay: Nrf2 qHTS screen for inhibitors; further: nearly all actives have a fitted effect of over 60% in size
# Conditions: A549 ARE-Fluc reporter, luciferase luminescence, 18-24 h; activity change, negative = inhibition: at 46 µM (top of the series)
# Procedure, shortened: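 Quantitative HTS in A549 cells stably bearing an antioxidant response element-firefly luciferase construct. Inhibition of Nrf2-driven transcription was scored by luminescence after 18-24 h of compound exposure at 37 °C.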
# On the % scale 0 is the no-effect control and ±100 the full control effect; potency means the concentration at half of the fitted maximal effect.
SMILES,"activity change, negative = inhibition",Potency
Cc1ccc(S(=O)(=O)NC(=O)COc2cc(C)ccc2C(C)C)cc1,inactive: -20.5%,–
O=S(=O)(c1ccc2c(c1)OCCO2)N1CCCN(S(=O)(=O)c2c(F)cccc2F)CC1,–,"inconclusive: 25.9 µM [falling, partial curve, poor fit]"
COc1ccc(/C=C/c2ccncc2)cc1,–,"inconclusive: 2.59 µM [activator, full curve]"
O=C(NC(=S)NNC(=O)c1ccccc1[N+](=O)[O-])c1ccc(Br)cc1,inactive: 2.87%,–
Nc1ncnc(NCc2ccc(F)cc2)c1[N+](=O)[O-],–,"inconclusive: 5.8 µM [falling, partial curve, poor fit]"
CC(=O)Nc1cccc(Oc2cc(C#N)c(C#N)cc2N2CCOCC2)c1,–,"inconclusive: 13 µM [falling, single point]"
Cc1ccc(CS(=O)(=O)c2ncc(Cl)c(C(=O)Nc3nc4ccc(F)cc4s3)n2)cc1,–,"inconclusive: 29.1 µM [falling, single point]"
Cc1ccc(-c2nc3c(c(SCC(=O)Nc4ccccc4Cl)n2)Cc2c(CO)cnc(C)c2O3)cc1,–,"inconclusive: 29.1 µM [activator, single point]"
Cc1cccn2c(=O)c(C=O)c(N3CCSCC3)nc12,–,"inconclusive: 29.1 µM [falling, single point]"
CCOC(=O)c1c2c(c(=S)n(-c3ccccc3)c1N)CCC2,–,"inconclusive: 8.2 µM [falling, partial curve, poor fit]"
Cc1nc(-c2ccccc2OC(F)(F)F)[nH]c(=O)c1Cl,inactive: -5.96%,–
Cc1cccc(N=Nc2c(O)[nH]c3ccc(F)cc23)c1,–,"inconclusive: 16.4 µM [activator, partial curve]"
COc1nc(Nc2ccc(O)cc2)nc(OC(C(F)(F)F)C(F)(F)F)n1,–,"inconclusive: 29.1 µM [falling, single point]"
CCOc1ccc(N(CC(=O)NCCOc2ccc(C)cc2)S(=O)(=O)c2ccccc2)cc1,–,"inconclusive: 6.51 µM [falling, single point]"
Cc1onc(-c2c(F)cccc2Cl)c1C(=O)N1CCc2ccccc21,–,"inconclusive: 14.6 µM [falling, single point]"
O=C(/C=C/c1ccccc1)CC(O)(c1ccccc1)C(F)(F)F (stereo unspecified),–,"inconclusive: 32.6 µM [falling, single point]"
CC(CC(=O)Nc1ccc(S(=O)(=O)N2CCOCC2)cc1)c1ccccc1 (stereo unspecified),–,"inconclusive: 20.6 µM [falling, single point]"
O=C(CN(C(=O)c1csnn1)c1cccc2c1CCCC2)NC1CCCC1,–,"inconclusive: 20.6 µM [falling, partial curve, poor fit]"
Cn1c(SCc2ccc(Br)cc2)nnc1-c1ccncc1,–,"inconclusive: 6.51 µM [falling, partial curve, poor fit]"
COCCN1CCN(C(=O)C2CCC(=O)N(Cc3cccc(C(F)(F)F)c3)C2)CC1 (stereo unspecified),inactive: 6.56%,–
CCN(CC)c1ccc(/C=C2\C(=O)N(c3nnc(C)c(=O)[nH]3)N=C2C)cc1,–,"inconclusive: 4.61 µM [falling, partial curve, poor fit]"

SMILES,"activity change, negative = inhibition",Potency
CC(C)(C)c1ccc(-c2c(C#N)c(N)nc3c2CCCC3)s1,inactive: 6.08%,–
Cc1nn(C)c(C)c1CN(C(=O)C1CCC(=O)N(C2CCCCCC2)C1)C(C)C (stereo unspecified),–,"inconclusive: 14.6 µM [activator, partial curve]"
CCOC(=O)CN1C(=O)/C(=C/c2c(F)cccc2Cl)Oc2ccccc21,–,"inconclusive: 9.2 µM [falling, partial curve, poor fit]"
COc1cccc(-c2cc(C(=O)Nc3ccc(N(C)C(C)=O)cc3)c3cc(Br)ccc3n2)c1,–,"inconclusive: 20.6 µM [falling, single point]"
Cc1cc(/C=C2\SC(=S)NC2=O)c(C)[nH]1,inactive: 0.648%,–
CN(CC(=O)NCc1cccnc1)S(=O)(=O)c1ccc(F)cc1,inactive: 23.8%,–
COc1cc(OC)cc(C(=O)NCCC(c2ccccc2)c2ccccc2)c1,–,"inconclusive: 29.1 µM [falling, single point]"
Cc1cc(O)c2c(c1O)C(=O)[C@]13C(=C2O)C(=O)[C@@H]2[C@@H](O)[C@H]1[C@@H]1[C@H](O)[C@H]3C(=O)C3=C(O)c4c(O)cc(C)c(O)c4C(=O)[C@]312,–,active: 0.366 µM
S=C(c1ccc(N2CCCC2)cc1)N1CCCCC1,–,"inconclusive: 16.4 µM [activator, partial curve]"
COc1ccc(C(=O)N/N=C/c2ccc3cccc(OCc4ccccc4)c3n2)cc1,–,"inconclusive: 25.9 µM [falling, partial curve, poor fit]"
COc1ccc(C(=O)Nn2cnc3ccccc3c2=O)c(OC)c1,–,"inconclusive: 5.17 µM [activator, full curve]"
Cn1c(CN2CCN(C(=O)c3ccccc3)CC2)nc2cc([N+](=O)[O-])ccc21,–,"inconclusive: 29.1 µM [falling, partial curve, poor fit]"
Cc1nc2ccc([N+](=O)[O-])cc2c(=O)n1Cc1ccc(Cl)cc1,inactive: -13.7%,–
Cc1sc2ncn(-c3ccccc3)c(=O)c2c1C,–,"inconclusive: 25.9 µM [activator, single point]"
O=C(Nc1cccc(Cl)c1)c1cnc[nH]1,–,"inconclusive: 11.6 µM [activator, partial curve] and inconclusive: 4.61 µM [activator, full curve]"
CNC(=O)c1ccsc1NC(=O)C1CCN(S(=O)(=O)c2ccc(Cl)s2)CC1,–,"inconclusive: 9.2 µM [falling, partial curve, poor fit]"
Cc1ccc(OCCn2c(=S)[nH]c3ccccc32)c(C(C)C)c1,inactive: -21.9%,–
COc1ccccc1/C=C1\SC(=S)N(Nc2nc(C)cc(C)n2)C1=O,–,"inconclusive: 4.11 µM [activator, single point]"
O=C(COc1ccccc1)Nc1nnc(S(=O)(=O)N2CCCC2)s1,–,"inconclusive: 5.8 µM [activator, partial curve, poor fit]"
COc1cc(CNCc2ccc(OC)c(OC)c2OC)cc(OC)c1,–,active: 9.2 µM
